Source: patent publication US4341798A, “Amide derivatives of p-isobutyl-phenyl-propionic acids and related pharmaceutical compositions” (Laboratori Prophin S.p.A., priority 1980, dated 1982)

Test: in vivo
Settings: rat

For COc1ccc2cc([C@H](C)C(=O)O)ccc2c1 [Naproxene, d-2(6'-methoxy-2'-naphtyl)-propionic acid], the TD50 at 672 h was 180 µmol/kg.
